Measurements published in the supplement of paper PMC10849652.
Some of the results follow.

Chains of the proteins cited; added tags and fusions are not shown. Lines headed by an entry give the natural chain unless they say otherwise; changes in a name come on top.
UniProt Q6NZ67, whole entry, looked up: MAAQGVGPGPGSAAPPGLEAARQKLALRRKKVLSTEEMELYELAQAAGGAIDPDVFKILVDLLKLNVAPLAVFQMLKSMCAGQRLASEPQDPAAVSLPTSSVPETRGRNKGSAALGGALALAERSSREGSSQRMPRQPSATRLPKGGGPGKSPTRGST
UniProt O15049: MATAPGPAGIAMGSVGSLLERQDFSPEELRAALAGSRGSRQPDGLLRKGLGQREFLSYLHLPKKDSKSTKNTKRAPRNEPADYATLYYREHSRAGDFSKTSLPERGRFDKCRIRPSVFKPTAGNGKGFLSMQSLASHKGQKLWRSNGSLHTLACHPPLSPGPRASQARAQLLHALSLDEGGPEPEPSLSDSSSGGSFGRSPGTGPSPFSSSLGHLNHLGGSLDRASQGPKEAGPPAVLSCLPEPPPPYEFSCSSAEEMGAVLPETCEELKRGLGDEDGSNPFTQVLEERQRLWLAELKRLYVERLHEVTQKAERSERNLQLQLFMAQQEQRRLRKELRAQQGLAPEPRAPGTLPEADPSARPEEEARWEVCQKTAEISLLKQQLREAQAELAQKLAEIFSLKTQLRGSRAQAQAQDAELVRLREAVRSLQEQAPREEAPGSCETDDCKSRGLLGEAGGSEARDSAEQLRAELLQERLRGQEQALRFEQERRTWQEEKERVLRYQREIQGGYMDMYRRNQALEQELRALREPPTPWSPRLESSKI
NBDY, A0A0U1RRE5, UniProt A0A0U1RRE5, whole entry, looked up: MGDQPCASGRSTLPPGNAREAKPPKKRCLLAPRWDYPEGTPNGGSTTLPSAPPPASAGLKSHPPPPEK
UniProt P08590, whole entry, looked up: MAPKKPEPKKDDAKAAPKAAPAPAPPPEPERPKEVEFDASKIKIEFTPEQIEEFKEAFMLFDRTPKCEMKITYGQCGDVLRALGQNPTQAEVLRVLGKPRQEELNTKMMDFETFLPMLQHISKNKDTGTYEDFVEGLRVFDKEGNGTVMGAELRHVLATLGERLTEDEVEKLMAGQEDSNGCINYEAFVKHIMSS
UniProt Q32MK0: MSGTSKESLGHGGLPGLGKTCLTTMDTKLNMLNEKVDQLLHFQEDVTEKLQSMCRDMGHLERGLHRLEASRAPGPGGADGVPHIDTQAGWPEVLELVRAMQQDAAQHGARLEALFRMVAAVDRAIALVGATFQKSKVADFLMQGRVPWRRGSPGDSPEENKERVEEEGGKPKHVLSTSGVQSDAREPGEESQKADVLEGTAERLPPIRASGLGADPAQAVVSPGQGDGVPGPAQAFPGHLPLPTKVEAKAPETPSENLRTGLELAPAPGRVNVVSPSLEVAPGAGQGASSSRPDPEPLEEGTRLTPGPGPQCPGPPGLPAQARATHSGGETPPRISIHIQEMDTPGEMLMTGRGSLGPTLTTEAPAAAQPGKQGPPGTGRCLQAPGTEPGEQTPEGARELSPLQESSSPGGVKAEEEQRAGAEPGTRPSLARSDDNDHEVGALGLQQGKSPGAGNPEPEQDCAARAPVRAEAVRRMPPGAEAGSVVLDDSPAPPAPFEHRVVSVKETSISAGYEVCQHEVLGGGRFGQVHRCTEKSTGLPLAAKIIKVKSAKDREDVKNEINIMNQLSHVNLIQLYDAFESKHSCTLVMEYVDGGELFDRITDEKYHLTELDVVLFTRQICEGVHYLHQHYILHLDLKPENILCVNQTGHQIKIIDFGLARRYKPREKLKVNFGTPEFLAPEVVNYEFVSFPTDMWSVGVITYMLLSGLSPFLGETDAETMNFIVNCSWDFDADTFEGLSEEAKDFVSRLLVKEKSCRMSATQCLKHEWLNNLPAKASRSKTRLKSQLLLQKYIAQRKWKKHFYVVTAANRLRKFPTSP
UniProt Q8N6N6: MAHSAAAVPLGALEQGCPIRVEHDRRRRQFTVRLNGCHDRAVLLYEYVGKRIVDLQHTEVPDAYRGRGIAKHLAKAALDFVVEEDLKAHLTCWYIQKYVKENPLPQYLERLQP
UniProt Q96DR8: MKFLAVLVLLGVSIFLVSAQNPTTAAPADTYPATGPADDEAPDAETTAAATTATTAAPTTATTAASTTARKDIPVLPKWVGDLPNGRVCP
UniProt Q969V3: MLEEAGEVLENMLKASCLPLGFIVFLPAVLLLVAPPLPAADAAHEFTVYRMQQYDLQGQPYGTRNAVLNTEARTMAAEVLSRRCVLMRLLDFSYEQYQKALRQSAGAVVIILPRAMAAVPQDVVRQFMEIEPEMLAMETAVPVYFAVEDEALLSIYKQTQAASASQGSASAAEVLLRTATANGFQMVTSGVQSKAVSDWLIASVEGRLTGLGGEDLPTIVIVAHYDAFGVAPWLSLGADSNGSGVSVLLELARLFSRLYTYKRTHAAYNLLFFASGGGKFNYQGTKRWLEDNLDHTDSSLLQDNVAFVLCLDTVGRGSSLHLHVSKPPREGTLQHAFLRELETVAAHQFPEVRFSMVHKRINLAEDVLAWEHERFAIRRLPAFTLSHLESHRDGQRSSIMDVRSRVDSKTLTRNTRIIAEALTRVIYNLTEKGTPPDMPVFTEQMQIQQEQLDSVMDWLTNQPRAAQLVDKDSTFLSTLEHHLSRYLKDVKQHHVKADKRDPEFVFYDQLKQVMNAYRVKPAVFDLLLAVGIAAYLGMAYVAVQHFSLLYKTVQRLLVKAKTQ
UniProt Q5TBK1: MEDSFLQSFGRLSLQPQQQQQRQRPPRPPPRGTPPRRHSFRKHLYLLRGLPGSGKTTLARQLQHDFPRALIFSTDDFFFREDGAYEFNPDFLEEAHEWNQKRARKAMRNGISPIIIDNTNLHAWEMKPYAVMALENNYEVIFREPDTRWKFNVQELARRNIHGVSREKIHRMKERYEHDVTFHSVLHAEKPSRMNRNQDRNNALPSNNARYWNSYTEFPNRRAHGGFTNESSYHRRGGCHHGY
UniProt Q9BRK3: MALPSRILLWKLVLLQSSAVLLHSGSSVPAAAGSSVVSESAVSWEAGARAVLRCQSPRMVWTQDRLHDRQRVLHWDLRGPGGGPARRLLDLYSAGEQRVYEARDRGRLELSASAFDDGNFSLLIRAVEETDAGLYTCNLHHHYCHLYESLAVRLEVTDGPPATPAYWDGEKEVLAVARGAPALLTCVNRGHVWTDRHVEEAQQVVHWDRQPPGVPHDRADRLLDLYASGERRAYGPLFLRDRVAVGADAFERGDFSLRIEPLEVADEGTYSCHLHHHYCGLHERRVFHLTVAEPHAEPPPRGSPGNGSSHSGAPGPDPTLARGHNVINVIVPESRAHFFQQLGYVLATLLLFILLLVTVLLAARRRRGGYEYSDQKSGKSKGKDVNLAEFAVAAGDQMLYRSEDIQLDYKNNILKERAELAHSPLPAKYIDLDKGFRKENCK
UniProt Q93015: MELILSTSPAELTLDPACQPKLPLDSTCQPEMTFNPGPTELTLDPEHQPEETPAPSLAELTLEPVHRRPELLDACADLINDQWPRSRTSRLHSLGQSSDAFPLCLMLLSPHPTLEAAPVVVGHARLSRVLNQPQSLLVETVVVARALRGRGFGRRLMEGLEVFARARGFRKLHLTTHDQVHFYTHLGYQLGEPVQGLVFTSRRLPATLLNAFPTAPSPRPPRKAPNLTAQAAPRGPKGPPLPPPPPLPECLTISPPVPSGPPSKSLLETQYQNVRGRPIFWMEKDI
UniProt P19105: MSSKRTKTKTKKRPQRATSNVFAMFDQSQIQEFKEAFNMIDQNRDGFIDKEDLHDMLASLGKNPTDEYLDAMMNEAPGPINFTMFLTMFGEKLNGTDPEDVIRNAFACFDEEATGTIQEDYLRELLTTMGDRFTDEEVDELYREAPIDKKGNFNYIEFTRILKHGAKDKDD
UniProt P12883, whole entry, looked up: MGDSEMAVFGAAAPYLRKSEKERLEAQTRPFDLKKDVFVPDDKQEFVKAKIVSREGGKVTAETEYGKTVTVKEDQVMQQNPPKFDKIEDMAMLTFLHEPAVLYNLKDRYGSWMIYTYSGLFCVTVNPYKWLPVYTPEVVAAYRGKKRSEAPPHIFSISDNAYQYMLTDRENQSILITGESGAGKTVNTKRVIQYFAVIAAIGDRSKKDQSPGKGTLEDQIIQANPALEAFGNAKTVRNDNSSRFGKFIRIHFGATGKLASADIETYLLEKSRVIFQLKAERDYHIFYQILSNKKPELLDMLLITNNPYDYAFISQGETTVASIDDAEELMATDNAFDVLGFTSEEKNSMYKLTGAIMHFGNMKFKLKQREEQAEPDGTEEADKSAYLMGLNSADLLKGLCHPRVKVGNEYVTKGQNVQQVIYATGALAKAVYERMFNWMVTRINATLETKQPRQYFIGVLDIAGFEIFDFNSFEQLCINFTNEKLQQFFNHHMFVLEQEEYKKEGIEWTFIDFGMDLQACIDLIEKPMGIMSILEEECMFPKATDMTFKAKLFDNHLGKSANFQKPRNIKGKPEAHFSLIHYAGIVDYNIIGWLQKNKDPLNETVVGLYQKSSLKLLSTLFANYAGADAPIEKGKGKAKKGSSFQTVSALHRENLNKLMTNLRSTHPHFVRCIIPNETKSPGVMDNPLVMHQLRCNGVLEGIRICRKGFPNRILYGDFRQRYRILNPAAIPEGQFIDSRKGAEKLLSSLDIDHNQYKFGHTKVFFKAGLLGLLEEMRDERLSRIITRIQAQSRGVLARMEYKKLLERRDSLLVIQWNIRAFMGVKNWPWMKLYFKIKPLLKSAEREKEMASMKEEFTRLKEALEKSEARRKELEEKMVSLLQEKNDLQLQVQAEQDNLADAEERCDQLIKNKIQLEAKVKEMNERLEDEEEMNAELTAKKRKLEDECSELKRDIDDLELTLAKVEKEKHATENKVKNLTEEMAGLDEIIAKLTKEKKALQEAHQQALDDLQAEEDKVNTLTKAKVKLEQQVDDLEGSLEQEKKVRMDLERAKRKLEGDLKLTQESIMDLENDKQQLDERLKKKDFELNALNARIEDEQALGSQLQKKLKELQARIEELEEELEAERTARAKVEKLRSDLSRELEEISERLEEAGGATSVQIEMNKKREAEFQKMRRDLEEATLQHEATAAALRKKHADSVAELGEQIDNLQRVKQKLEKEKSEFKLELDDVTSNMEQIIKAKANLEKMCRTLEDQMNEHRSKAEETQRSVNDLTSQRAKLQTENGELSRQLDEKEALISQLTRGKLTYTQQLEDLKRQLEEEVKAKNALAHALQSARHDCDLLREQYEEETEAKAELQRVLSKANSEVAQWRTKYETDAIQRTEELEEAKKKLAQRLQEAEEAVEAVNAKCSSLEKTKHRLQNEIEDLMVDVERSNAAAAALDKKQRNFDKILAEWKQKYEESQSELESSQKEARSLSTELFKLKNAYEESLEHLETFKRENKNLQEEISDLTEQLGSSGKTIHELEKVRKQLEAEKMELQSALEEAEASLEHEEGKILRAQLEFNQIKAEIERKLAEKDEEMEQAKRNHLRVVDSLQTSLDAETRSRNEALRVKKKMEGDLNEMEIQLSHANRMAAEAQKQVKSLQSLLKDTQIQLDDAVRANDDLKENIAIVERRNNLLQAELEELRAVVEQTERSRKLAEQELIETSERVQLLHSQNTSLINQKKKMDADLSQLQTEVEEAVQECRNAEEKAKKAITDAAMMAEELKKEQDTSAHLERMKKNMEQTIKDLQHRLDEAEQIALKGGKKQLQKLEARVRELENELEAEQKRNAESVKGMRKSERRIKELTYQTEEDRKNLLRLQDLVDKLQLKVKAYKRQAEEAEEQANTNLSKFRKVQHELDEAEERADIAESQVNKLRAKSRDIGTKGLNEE
UniProt Q15742: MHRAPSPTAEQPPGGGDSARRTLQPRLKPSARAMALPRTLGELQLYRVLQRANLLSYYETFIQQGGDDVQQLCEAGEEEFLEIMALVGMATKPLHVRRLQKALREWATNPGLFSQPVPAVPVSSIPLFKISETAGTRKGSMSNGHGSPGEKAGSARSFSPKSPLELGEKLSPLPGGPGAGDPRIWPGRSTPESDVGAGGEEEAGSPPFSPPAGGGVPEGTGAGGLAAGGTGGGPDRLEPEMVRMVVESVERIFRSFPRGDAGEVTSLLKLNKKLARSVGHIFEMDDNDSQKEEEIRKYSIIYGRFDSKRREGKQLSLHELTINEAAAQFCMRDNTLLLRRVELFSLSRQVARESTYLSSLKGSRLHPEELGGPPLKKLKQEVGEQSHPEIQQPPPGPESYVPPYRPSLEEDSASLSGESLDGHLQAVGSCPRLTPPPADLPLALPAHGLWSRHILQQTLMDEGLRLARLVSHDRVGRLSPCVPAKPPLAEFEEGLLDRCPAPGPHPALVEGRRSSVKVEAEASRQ

Key:
Assay in all cases: log2 fold change, soluble protein after heating vs DMSO (PISA); higher = thermal stabilisation; K562 lysate, 10 uM; active = over 0.2 and 3.5 SD of the protein, either way, in both replicates (recomputed)
ibrutinib = compound: C=CC(=O)N1CCC[C@@H](n2nc(-c3ccc(Oc4ccccc4)cc3)c3c(N)ncnc32)C1 [ibrutinib]
Summary of the method: (§1)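 K562 pellets were dounce-homogenised in PBS pH 7.4 containing 1 mM MgCl2, and the crude extract, at 1 mg/mL protein, was exposed to 10 μM compound for 30 min. Aliquots were heated for 3 min across 48°C-58°C, pooled, brought to 0.5% NP-40 at 4°C and spun at 21,000xg for 90 min, with the supernatant taken as soluble protein. TMTpro 16plex LC-MS/MS with equalised channel sums quantified that protein. Values are log-two fold changes in thermal stability relative to solvent controls, taken from duplicates.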

[1] = compound: CC(=O)c1cnc2ccc(-c3cc(Cl)c(O)c(Cl)c3)nc2c1N[C@H]1CC[C@H](CN(C)C)CC1
Summary of the method: as §1

ralimetinib = compound: CC(C)(C)Cn1c(N)nc2ccc(-c3[nH]c(C(C)(C)C)nc3-c3ccc(F)cc3)nc21 [ralimetinib]
Summary of the method: as §1

[2] = compound: CC(C)(O)CC(=O)NCCn1ccc2ncnc(Nc3ccc(Oc4cccc(C(F)(F)F)c4)c(Cl)c3)c21
Summary of the method: as §1

[3] = compound: CC(C)C1=C2N=C(C=C(N2N=C1)NCC3=CC=CC=C3)NCCCCCCN
Summary of the method: as §1

[4] = compound: CC1=C(C(CC(=O)N1)C2=CC=C(C=C2)C(F)(F)F)C(=O)NC3=C(C=C4C(=C3)C=NN4)F
Summary of the method: as §1

[5] = compound: CC1=C(C=C(C=C1)NC(=O)C2=CC(=CC=C2)C(C)(C)C#N)NC3=CC4=C(C=C3)N=CN(C4=O)C
Summary of the method: as §1

[6] = compound: CC1=C(C=C(C=C1)NC(=O)C2=CC(=CC=C2)N(C)C)NC(=O)C3=CC=C(C=C3)O
Summary of the method: as §1

[7] = compound: CC1=CC=C(C=C1)SC2=C3C=C(SC3=CN=C2)C(=O)N
Summary of the method: as §1

vemurafenib = compound: CCCS(=O)(=O)Nc1ccc(F)c(C(=O)c2c[nH]c3ncc(-c4ccc(Cl)cc4)cc23)c1F [vemurafenib]
Summary of the method: as §1

[8] = compound: CCCS(=O)(=O)Nc1ccc(F)c(C(=O)c2c[nH]c3ncc(Cl)cc23)c1F
Summary of the method: as §1

barasertib = compound: CCN(CCCOc1ccc2c(Nc3cc(CC(=O)Nc4cccc(F)c4)[nH]n3)ncnc2c1)CCOP(=O)(O)O [barasertib]
Summary of the method: as §1

[9] = compound: CC[C@@H]1C(=O)N(C)c2cnc(Nc3ccc(C(=O)NC4CCN(C)CC4)cc3OC)nc2N1C1CCCC1
Summary of the method: as §1

volasertib = compound: CC[C@@H]1C(=O)N(C)c2cnc(Nc3ccc(C(=O)N[C@H]4CC[C@H](N5CCN(CC6CC6)CC5)CC4)cc3OC)nc2N1C(C)C [volasertib]
Summary of the method: as §1

[10] = compound: CCn1c(C(=O)N(C2CC2)C2CC2)cc2c3c(ncn3C)c(Nc3cc(C)n(C)n3)nc21
Summary of the method: as §1

[11] = compound: CCn1cc(-c2ccnc3[nH]c(-c4cccc(CN(C)C)c4)cc23)c(-c2ccc(NC(=O)N(C)C)cc2)n1
Summary of the method: as §1

[12] = compound: CN1CCC(CNc2ccc3ncc(-c4cccc(OC(F)(F)F)c4)n3n2)CC1
Summary of the method: as §1

sotrastaurin = compound: CN1CCN(c2nc(C3=C(c4c[nH]c5ccccc45)C(=O)NC3=O)c3ccccc3n2)CC1 [sotrastaurin]
Summary of the method: as §1

[13] = compound: CC1=C(C2=C(C=C1)C(=O)C3=CC=CC=C3N2CCCN)C
Summary of the method: as §1

saracatinib = compound: CN1CCN(CCOc2cc(OC3CCOCC3)c3c(Nc4c(Cl)ccc5c4OCO5)ncnc3c2)CC1 [saracatinib]
Summary of the method: as §1

Measured: log2 fold change

MZT2B (UniProt Q6NZ67)
inactive: ibrutinib -0.105 | [1] 0.101 | ralimetinib -0.009 | [2] -0.026 | [3] -0.011 | [4] 0.023 | [5] -0.003 | [6] 0.032 | [7] -0.089 | vemurafenib 0.011 | [8] 0.077 | barasertib 0.19 | [9] 0.035 | volasertib 0.103 | [10] 0.005 | [11] -0.031 | [12] 0.094 | sotrastaurin -0.004

NAGPA (UniProt Q9UK23)
inactive: ibrutinib 0.034 | [1] -0.052 | [3] -0.056 | [4] -0.151 | [13] 0.059 | [7] 0.049 | vemurafenib -0.018 | [8] 0.101 | barasertib 0.038 | volasertib 0.003 | [11] 0.188 | [12] -0.034 | saracatinib -0.11

N4BP3 (UniProt O15049)
inactive: ibrutinib 0.039 | [1] -0.055 | [3] 0.056 | [4] 0.055 | [7] 0.038 | [8] -0.009 | barasertib 0.315 | volasertib -0.001

NBDY, A0A0U1RRE5
inactive: ibrutinib 0.205 | [1] 0.052 | ralimetinib -0.157 | [2] 0.124 | [3] -0.261 | [4] 0.122 | [13] -0.045 | [5] 0.028 | [6] -0.129 | [7] -0.041 | vemurafenib -0.117 | [8] -0.092 | barasertib 0.226 | volasertib 0.167 | [10] 0.014 | [11] 0.049 | [12] -0.116 | saracatinib -0.055 | sotrastaurin -0.189

MYL3 (UniProt P08590)
inactive: ibrutinib 0.121 | [1] -0.048 | ralimetinib 0.024 | [2] -0.031 | [3] 0.011 | [4] -0.026 | [5] 0.094 | [6] -0.009 | [7] -0.048 | vemurafenib 0.026 | [8] 0.027 | barasertib 0.143 | [9] 0.071 | volasertib 0.04 | [10] -0.018 | [11] 0.118 | [12] -0.112 | sotrastaurin -0.044

MYLK3 (UniProt Q32MK0)
inactive: ibrutinib 0.088 | [1] -0.058 | ralimetinib 0.04 | [2] 0.026 | [3] 0.081 | [4] 0.089 | [5] -0.021 | [6] 0.168 | [7] 0.267 | [8] 0.047 | barasertib 0.017 | [9] 0.029 | volasertib -0.071 | [10] -0.163 | [11] 0.39 | [12] 0 | sotrastaurin 0.032

NATD1 (UniProt Q8N6N6)
inactive: ibrutinib 0.089 | ralimetinib 0.048 | [2] 0.002 | [3] 0.019 | [4] 0.009 | [13] 0.024 | [5] 0.004 | [6] -0.04 | vemurafenib -0.179 | barasertib 0.045 | [9] -0.037 | [10] 0.003 | [11] 0.025 | [12] -0.029 | saracatinib 0.019 | sotrastaurin -0.02

MUCL1 (UniProt Q96DR8)
inactive: ibrutinib 0.096 | [1] -0.077 | ralimetinib -0.157 | [2] 0.147 | [3] 0.296 | [4] 0.085 | [13] 0.429 | [5] -0.014 | [6] -0.273 | [7] -0.197 | vemurafenib -0.202 | [8] -0.242 | barasertib -0.057 | [9] -0.214 | volasertib -0.174 | [10] -0.169 | [11] 0.146 | [12] -0.052 | saracatinib -0.003 | sotrastaurin -0.275

NBEA (UniProt Q8NFP9)
inactive: ibrutinib -0.02 | [1] -0.03 | ralimetinib 0.005 | [2] 0.028 | [3] -0.02 | [4] 0.011 | [13] -0.06 | [5] -0.007 | [6] -0.017 | [7] 0.028 | vemurafenib 0.017 | [8] 0.022 | barasertib -0.006 | [9] -0.048 | volasertib -0.052 | [10] -0.014 | [11] -0.08 | [12] 0.1 | saracatinib 0.08 | sotrastaurin 0.014

NCLN (UniProt Q969V3)
inactive: ibrutinib 0.006 | [1] -0.005 | ralimetinib 0.029 | [2] -0.037 | [3] -0.012 | [4] 0.025 | [13] 0.013 | [5] -0.009 | [6] 0.008 | [7] -0.008 | vemurafenib 0.001 | [8] 0.01 | barasertib 0.022 | [9] 0 | volasertib -0.009 | [10] -0.012 | [11] -0.052 | [12] -0.009 | saracatinib 0.009 | sotrastaurin 0.017

NASP (UniProt P49321)
inactive: ibrutinib -0.007 | [1] -0.002 | ralimetinib -0.033 | [2] 0.004 | [3] -0.019 | [4] -0.016 | [13] 0.012 | [5] -0.007 | [6] -0.017 | [7] -0.01 | vemurafenib -0.004 | [8] -0.015 | barasertib -0.019 | [9] 0.015 | volasertib 0.027 | [10] -0.01 | [11] -0.019 | [12] -0.02 | saracatinib -0.001 | sotrastaurin -0.014

2 entries drawn at random from those above:
NBEA (UniProt Q8NFP9)
inactive: ibrutinib -0.02 | [1] -0.03 | ralimetinib 0.005 | [2] 0.028 | [3] -0.02 | [4] 0.011 | [13] -0.06 | [5] -0.007 | [6] -0.017 | [7] 0.028 | vemurafenib 0.017 | [8] 0.022 | barasertib -0.006 | [9] -0.048 | volasertib -0.052 | [10] -0.014 | [11] -0.08 | [12] 0.1 | saracatinib 0.08 | sotrastaurin 0.014

NASP (UniProt P49321)
inactive: ibrutinib -0.007 | [1] -0.002 | ralimetinib -0.033 | [2] 0.004 | [3] -0.019 | [4] -0.016 | [13] 0.012 | [5] -0.007 | [6] -0.017 | [7] -0.01 | vemurafenib -0.004 | [8] -0.015 | barasertib -0.019 | [9] 0.015 | volasertib 0.027 | [10] -0.01 | [11] -0.019 | [12] -0.02 | saracatinib -0.001 | sotrastaurin -0.014

Later entries.

N4BP2L1 (UniProt Q5TBK1)
inactive: ibrutinib -0.085 | [1] 0.002 | [4] -0.12 | [7] -0.129 | vemurafenib 0.144 | [8] 0.021 | barasertib 0.02 | [9] -0.119 | volasertib 0.026 | [11] -0.305 | [12] 0.054

MXRA8 isoform 2 (UniProt Q9BRK3)
inactive: ibrutinib 0.023 | barasertib 0.019

NAP1L4 (UniProt C9J6D1)
inactive: [1] 0.04 | [7] -0.141 | [8] -0.054 | volasertib -0.229

NAA80 isoform 2 (UniProt Q93015)
inactive: ralimetinib 0.018 | [2] -0.073 | [3] -0.103 | [4] 0.087 | [6] 0.059 | [10] -0.084

MYL12A (UniProt P19105)
inactive: [3] 0.011 | [11] 0.185 | [12] -0.394

NACA2 (UniProt Q9H009)
inactive: ralimetinib -0.034 | [2] -0.011 | [13] 0.03 | [6] 0.021 | [10] 0.114 | saracatinib -0.078

MYH7 (UniProt P12883)
inactive: ibrutinib 0.131 | barasertib 0.391

NACA (UniProt F8VNW4)
inactive: [1] -0.301 | [7] 0.128 | [8] -0.168 | volasertib 0.018

NAP1L4 (UniProt C9JZI7)
inactive: [1] 0.095 | [3] 0.031 | [13] -0.065 | [7] -0.002 | [8] -0.071 | volasertib -0.162 | saracatinib 0.077

NAB2 (UniProt Q15742)
inactive: ibrutinib 0.029 | [3] -0.062 | [4] 0.047 | [13] -0.009 | [5] -0.088 | vemurafenib 0.06 | barasertib 0.009 | [9] 0 | [11] 0.114 | [12] 0.016 | saracatinib 0.135 | sotrastaurin 0.019
